In this test the target is RAGE from bovine lung (native, purified/immunoprecipitated) (bovine) (UniProt Q28173). Put plainly: 125I amphoterin binding to immobilized RAGE (figure legend).

Amino acid sequences for entries named in this document (tags omitted). A change or cut given only in a name is not applied to a line headed by its entry. Residues count along the entry.
UniProt Q28173: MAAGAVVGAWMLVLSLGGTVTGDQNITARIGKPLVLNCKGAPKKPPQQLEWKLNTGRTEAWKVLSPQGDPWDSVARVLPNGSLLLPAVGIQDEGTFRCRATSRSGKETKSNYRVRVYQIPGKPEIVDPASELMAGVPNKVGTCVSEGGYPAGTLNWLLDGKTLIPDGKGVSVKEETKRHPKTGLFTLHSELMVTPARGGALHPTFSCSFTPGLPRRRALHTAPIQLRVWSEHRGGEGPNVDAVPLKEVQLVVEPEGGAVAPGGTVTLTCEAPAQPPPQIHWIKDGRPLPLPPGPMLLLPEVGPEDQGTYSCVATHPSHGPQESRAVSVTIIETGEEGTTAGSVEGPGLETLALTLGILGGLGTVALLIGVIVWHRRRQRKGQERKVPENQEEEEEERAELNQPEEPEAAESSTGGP
UniProt P63159, residues 2-215: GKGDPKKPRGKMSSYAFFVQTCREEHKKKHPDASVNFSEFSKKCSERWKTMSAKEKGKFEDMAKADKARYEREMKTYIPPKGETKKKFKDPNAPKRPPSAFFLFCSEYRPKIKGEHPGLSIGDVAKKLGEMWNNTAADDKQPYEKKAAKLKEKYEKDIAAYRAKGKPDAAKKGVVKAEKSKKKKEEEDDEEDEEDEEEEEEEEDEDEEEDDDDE

These are yes or no findings as the source states them, for the method shown. A result given as binding can be weak or reduced; the word gives no strength.

As for “amphoterin (baculovirus expressed rat amphoterin) (from UniProt P63159 2-215) (ligand)”, the binding entry is listed as “binds”.

Values taken from US20100249383A1, “Novel Ligand Involved In The Transmigration Of Leukocytes Across the Endothelium and Uses Therefor” (The Regents of The University of California and The Burnham …, priority 2001, published 2010).
